Measured values from paper PMC7613265.
These are yes or no findings as the source states them, for the method shown. Some binding calls cover weakened binding; strength is not graded here.

Chains of the proteins cited; added tags and fusions are not shown. Residues count along the entry.
UniProt P21513, residues 603-850: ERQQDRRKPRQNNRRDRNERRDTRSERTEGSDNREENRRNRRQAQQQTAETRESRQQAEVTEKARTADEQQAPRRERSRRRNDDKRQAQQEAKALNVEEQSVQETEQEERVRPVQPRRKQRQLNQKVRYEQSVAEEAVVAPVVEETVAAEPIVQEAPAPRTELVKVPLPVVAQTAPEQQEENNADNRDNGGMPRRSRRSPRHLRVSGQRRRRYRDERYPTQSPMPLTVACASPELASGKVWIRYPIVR
UniProt P0A6P9: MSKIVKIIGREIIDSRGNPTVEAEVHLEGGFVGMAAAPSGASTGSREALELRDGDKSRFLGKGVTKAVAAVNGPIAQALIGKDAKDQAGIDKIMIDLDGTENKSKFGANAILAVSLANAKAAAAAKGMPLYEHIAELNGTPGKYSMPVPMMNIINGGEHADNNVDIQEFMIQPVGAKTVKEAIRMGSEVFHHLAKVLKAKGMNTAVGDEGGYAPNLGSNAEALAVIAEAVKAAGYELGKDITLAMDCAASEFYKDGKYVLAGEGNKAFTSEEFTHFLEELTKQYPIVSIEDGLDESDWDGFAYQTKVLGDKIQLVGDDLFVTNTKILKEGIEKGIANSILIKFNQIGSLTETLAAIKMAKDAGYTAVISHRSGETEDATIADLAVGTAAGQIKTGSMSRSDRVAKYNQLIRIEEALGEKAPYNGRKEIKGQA

Molecular target: RNase E (603-850) (E. coli) (UniProt P21513)
Assay: co-purification; recognition core expressed and purified by the protocols of Bruce et al. (2018); not described here

With “Enolase (from UniProt P0A6P9 1-432) (enzyme)” the binding was “binds”.
